Measured values: publication doi:10.1101/2023.10.13.562244
These are yes or no findings as the source states them, for the method shown. Binding seen in cells or lysates may run through a third protein. Some binding calls cover weakened binding; strength is not graded here.

Sequences of proteins named here, by UniProt entry; tags and fusion partners are left off.
UniProt Q3TKT4: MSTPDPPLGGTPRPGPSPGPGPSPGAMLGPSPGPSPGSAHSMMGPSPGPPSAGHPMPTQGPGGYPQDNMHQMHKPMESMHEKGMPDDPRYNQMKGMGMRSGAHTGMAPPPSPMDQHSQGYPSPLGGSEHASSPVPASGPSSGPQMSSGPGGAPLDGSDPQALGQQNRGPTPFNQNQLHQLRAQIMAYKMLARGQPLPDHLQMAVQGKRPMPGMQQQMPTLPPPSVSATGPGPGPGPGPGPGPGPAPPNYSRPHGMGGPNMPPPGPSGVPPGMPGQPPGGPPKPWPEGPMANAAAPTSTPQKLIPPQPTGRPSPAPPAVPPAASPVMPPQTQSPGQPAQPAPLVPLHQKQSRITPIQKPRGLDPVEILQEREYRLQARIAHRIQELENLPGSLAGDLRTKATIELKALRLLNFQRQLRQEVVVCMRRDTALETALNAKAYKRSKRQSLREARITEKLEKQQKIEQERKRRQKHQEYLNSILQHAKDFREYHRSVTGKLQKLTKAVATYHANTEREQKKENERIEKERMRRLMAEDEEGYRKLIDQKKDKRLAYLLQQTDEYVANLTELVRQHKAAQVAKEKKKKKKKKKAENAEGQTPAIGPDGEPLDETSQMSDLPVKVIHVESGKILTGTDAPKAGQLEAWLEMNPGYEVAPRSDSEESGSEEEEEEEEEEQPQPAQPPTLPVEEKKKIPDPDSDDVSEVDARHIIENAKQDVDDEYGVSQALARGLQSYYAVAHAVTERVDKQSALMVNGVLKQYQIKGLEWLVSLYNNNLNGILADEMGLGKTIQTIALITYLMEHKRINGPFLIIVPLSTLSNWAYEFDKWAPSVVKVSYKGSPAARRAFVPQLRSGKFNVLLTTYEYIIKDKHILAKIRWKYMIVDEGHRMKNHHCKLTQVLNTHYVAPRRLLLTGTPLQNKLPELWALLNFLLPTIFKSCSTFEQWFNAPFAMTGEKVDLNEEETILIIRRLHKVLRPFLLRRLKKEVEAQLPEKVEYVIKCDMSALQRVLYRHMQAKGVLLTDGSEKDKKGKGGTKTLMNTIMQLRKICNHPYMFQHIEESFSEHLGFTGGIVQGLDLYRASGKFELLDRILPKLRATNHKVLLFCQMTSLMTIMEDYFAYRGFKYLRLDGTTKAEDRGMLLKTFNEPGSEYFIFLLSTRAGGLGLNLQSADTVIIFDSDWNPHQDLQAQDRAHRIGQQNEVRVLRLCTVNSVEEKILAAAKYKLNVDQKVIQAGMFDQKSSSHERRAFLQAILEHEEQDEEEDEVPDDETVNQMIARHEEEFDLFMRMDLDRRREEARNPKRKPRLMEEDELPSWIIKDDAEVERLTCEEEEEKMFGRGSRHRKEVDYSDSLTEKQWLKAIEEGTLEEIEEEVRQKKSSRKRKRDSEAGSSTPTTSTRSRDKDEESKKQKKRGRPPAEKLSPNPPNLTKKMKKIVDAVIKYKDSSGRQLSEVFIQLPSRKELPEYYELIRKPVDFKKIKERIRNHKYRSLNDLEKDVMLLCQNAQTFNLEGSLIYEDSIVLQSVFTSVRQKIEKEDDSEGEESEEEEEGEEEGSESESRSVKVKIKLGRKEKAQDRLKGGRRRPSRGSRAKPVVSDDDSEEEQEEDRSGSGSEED

Molecular target: T1, Dclk2 (doublecortin like kinase 2) (mouse (endogenous in primary cortical neurons)) (UniProt Q6PGN3)
T1 sequence: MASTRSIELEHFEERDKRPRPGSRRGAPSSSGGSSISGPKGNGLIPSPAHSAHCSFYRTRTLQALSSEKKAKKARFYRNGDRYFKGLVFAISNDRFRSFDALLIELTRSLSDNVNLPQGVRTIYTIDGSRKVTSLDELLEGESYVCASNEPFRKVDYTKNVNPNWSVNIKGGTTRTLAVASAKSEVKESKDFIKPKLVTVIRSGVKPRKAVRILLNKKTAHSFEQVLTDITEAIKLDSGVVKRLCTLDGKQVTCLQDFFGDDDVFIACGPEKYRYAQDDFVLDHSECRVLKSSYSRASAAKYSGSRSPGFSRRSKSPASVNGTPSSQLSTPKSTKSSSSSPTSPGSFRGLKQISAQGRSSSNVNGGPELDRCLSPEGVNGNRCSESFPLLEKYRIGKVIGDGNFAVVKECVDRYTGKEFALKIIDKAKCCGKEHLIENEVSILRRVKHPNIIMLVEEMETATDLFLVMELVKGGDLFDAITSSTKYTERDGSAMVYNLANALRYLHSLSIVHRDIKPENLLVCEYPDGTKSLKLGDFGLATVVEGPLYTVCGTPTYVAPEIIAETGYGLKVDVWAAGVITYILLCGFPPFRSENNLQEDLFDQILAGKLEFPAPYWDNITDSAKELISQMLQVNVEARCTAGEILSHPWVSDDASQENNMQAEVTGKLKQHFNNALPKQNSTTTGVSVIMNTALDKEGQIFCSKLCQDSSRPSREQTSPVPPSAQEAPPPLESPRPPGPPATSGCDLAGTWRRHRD
Experiment: co-IP

For “Brg1/Smarca4 (from UniProt Q3TKT4 1-1613)”, the binding was “binds”.
